According to patent US20240130367A1, “PLANT GROWTH PROMOTERS” (University of Durham, priority 2020, published 2024):
Several values for one entry are separate records, joined by “and”; a condition that tells them apart may be missing. Identical values can stand only once. The name of at least one read-out is uncertain.

Test system: Arabidopsis thaliana wild-type
Experiment: Hypocotyl growth assay under reduced light
Type: in vivo
Conditions: 100 μM; for New length (cm): three days, trials 1, 2, 3 and SAM each with own DMSO control
Excerpt: Arabidopsis thaliana wild-type seeds were from laboratory stocks of Columbia (Col-0) and Landsberg erecta (Ler-0) accessions. Arabidopsis thaliana is a dicot. The mutants of gid1 (J. Griffiths, et al., Plant Cell, 2006, 18, 3399-3414) were obtained from Dr. Steve Thomas (Rothamsted Research, UK) and were in a Col-0 background, whilst the della quintuple mutant (S. H. Feng et al. Nature, 2008, 451: 475-479) and ga1-5 (I. Fridborg et al. Plant Cell, 1999, 11: 1019-1031) were in a Ler-0 background and was obtained from the Nottingham Arabidopsis Stock Centre (NASC). The A. thaliana line expressing RGA-GFP (A. L. Silverstone et al. The Plant Cell, 2001, 13: 1555-1565), Col-0 background was obtained from Prof. Keith Lindsey (Durham University, UK). Seeds were plated out 1×MS medium pH 5.8 (T. Murashige and F. Skoog (1962) Physiologia Plantarum 15: 473-497) in petri dishes with a concentration of either 0.8% or 1.2% (w/v) phytoagar for root and hypocotyl measurements, respectively. After sowing seeds were stratified on plates at 4° C. for a minimum of 48 h to achieve synchronous germination. Seedlings were grown for either 7 or 2 days for root and hypocotyl measurements, respectively, prior to treatment with chemicals. For hypocotyl measurements, seeds were sown on nylon mesh (acid resistant monofilament nylon filter mesh fabric; GZ, model number H20M). […]
After growing as described above seedlings for root assays were transferred to 1.2% (w/v) agar plates containing each chemical at a final concentration of 100 μM (the addition of the chemicals was performed when media had cooled to 50° C. after autoclaving), with an equivalent concentration of DMSO as control. […] The plants were subsequently grown vertically and after a further 5 days images of the plates were scanned and the root growth that occurred during the 5 days on chemicals was measured using ImageJ software. 18 seedlings were measured for each treatment. […] At least 15 seedlings were measured for each plate. […]

Structure (SMILES): Cl.NCCNS(=O)(=O)c1cccc2ccccc12 [eW5, 2′-Amino-1′-(1-naphthylsulfonylamino)Ethane Hydrochloric Acid Salt]
- Relative growth (cm) (relative to the DMSO control of the same trial, listed as ew5): 0.4467
- New length (cm): 0.322 cm and 0.6058 cm and 0.318 cm
- New length (cm) (listed as ew5): 0.285 cm
